Laboratory results reported in PubChem BioAssay AID504444 (National Center for Advancing Translational Sciences (NCATS), 2011).
In all, about 360,000 compounds went through this assay and about 7,500 (2.1%) were called active. This list was built around the results that the source calls inconclusive (neither active nor inactive); the mix of calls is not that of the screen. Calls follow the shape of the dose curve; as a rule, active = well fitted inhibition curve with a large enough effect; inconclusive = small, poorly fitted or top-dose-only effect, or effect the other way; inactive = flat fitted curve, though single readings scatter. Potencies of inconclusive entries are doubtful fits and often do not repeat.
Potency is read from the fitted curve at half-maximal effect.

Assay: Nrf2 qHTS screen for inhibitors; also: nearly all actives have a fitted effect of over 60% in size
Details: A549 ARE-Fluc reporter, luciferase luminescence, 18-24 h; series mostly up to 46 µM
Outline: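 Quantitative HTS in A549 cells stably bearing an antioxidant response element-firefly luciferase construct. Inhibition of Nrf2-driven transcription was scored by luminescence after 18-24 h of compound exposure at 37 °C.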
With `CCCCC(Sc1ccc2nnc(-c3ccccn3)n2n1)C(=O)O` (stereo unspecified) the Potency was “inactive”. In the case of `CCOc1ccccc1C(=O)Nc1cccc(-c2ccc3nncn3n2)c1`, the Potency is reported as inconclusive: 8.2 µM [falling, partial curve]. With `NC(=O)C1CC(=O)N(c2ccc(OCc3c(F)cccc3Cl)cc2)C1` (stereo unspecified) the Potency was inconclusive: 5.8 µM [falling, partial curve, poor fit]. In the case of `CCOc1ccc(NC(=O)c2cnc(Nc3ccccc3OC)c3ccccc23)cc1`, the Potency is reported as inconclusive: 1.84 µM [activator, partial curve]. In the case of `Cc1cccc(N2CCN(C(=O)CCn3c(=O)[nH]c4ccsc4c3=O)CC2C)c1` (stereo unspecified), the Potency is reported as inconclusive: 18.4 µM [falling, partial curve, poor fit]. With `Cc1ccc(C(=O)Nc2ccccc2C(=O)N2CCCCC2C)cc1` (stereo unspecified) the Potency was inconclusive: 2.06 µM [activator, full curve]. With `NC(=O)Nc1ccc2c(c1)OCCO2` the Potency was inconclusive: 13 µM [activator, partial curve]. In the case of `CN1C(=O)/C(=C/C=C2/CCCN2C)N(C)C1=S`, the Potency is reported as inconclusive: 23.1 µM [activator, single point]. For `CCc1ccc2oc(-c3cc(NC(=O)c4cccnc4)cc(C)c3O)nc2c1`, the Potency was inconclusive: 6.51 µM [activator, partial curve]. For `O=C(NCCC1=CCCCC1)C1COc2ccccc2O1` (stereo unspecified), the Potency was inconclusive: 29.1 µM [activator, single point]. For `Cn1c(=O)c2c(nc(CN3CCc4ccccc4C3)n2Cc2ccccc2)n(C)c1=O`, the Potency was inconclusive: 25.9 µM [falling, partial curve, poor fit]. With `CN(CCOc1ccccc1)CC(=O)Nc1cc([N+](=O)[O-])ccc1Cl` the Potency was active: 16.4 µM. With `CC1(C)CC2(C)OCCN2C(=S)N1` (stereo unspecified) the Potency was inconclusive: 18.4 µM [falling, partial curve, poor fit]. In the case of `N#CC(C#N)=C1C=C2C=C(N3CCCCC3)CCC2CC1` (stereo unspecified), the Potency is reported as inconclusive: 20.6 µM [falling, single point]. In the case of `CC(C)Oc1ccc(CNC(=O)c2cccc(NC(=O)N3CCSc4ncccc43)c2)cc1`, the Potency is reported as active: 23.1 µM. For `O=C1C(=O)N(c2ccccn2)C(c2ccc(Br)cc2)/C1=C(/O)c1ccc(Br)cc1` (stereo unspecified), the Potency was inconclusive: 9.2 µM [falling, partial curve, poor fit]. For `Clc1ccc(CSc2cnnc3ccccc23)cc1Cl`, the Potency was inconclusive: 4.61 µM [falling, partial curve, poor fit]. With `CCC(=O)N1CCc2cc(Br)cc(S(=O)(=O)N3CCCC(C(=O)Nc4cccc(F)c4)C3)c21` (stereo unspecified) the Potency was inconclusive: 23.1 µM [falling, partial curve, poor fit]. In the case of `Cc1ccc(NC(=O)C2CCN(S(=O)(=O)c3cccc4nsnc34)CC2)cc1`, the Potency is reported as inconclusive: 18.4 µM [falling, partial curve]. In the case of `C/C(=N\NC(=O)CCCNc1ccc(C)cc1)c1ccccn1`, the Potency is reported as inconclusive: 29.1 µM [falling, single point]. With `Cc1ccc(NC(=O)CN2C(=O)C(c3ccc(F)cc3)=NC23CCCCCC3)c(C)c1` the Potency was inconclusive: 0.116 µM [falling, full curve, poor fit]. In the case of `CC1CCN(S(=O)(=O)c2ccc3nc(NCc4ccc(N(C)C)cc4)ccc3c2)CC1`, the Potency is reported as inconclusive: 29.1 µM [falling, single point]. With `CC(=O)Nc1ccc(N2CCCCC2)c(C(=O)Nc2cccc(C)c2)c1` the Potency was inconclusive: 29.1 µM [falling, single point]. In the case of `O=c1c2ccccc2[nH]c(=S)n1CC1CCCO1` (stereo unspecified), the Potency is reported as inconclusive: 8.2 µM [falling, partial curve]. For `CCN(Cc1ccccc1)C(c1ccccn1)c1nnnn1C1CCCCC1` (stereo unspecified), the Potency was inconclusive: 29.1 µM [falling, single point]. For `Cc1cc(C)nc(NN=C(c2ccccc2)c2ccccc2)n1`, the Potency was inconclusive: 29.1 µM [falling, single point]. In the case of `Cn1c2ccccc2c(=O)c2ccc(NCCc3cccs3)cc21`, the Potency is reported as inconclusive: 7.31 µM [activator, partial curve]. With `O=C(Nc1cccc(C(F)(F)F)c1)OCc1ccncc1` the Potency was inconclusive: 18.4 µM [falling, partial curve, poor fit]. With `COc1ccc(OC)c(NC(=O)C2CCCN(S(=O)(=O)c3ccc(-n4cnnn4)cc3)C2)c1` (stereo unspecified) the Potency was “inactive”. In the case of `Cc1ccc(C)c(N2CCN(C(=O)C3CCC(CNS(=O)(=O)c4cccs4)CC3)CC2)c1` (stereo unspecified), the Potency is reported as active: 18.4 µM. In the case of `CCc1ccc(/C=N/NC(=O)c2cc(C3CC3)nc3ccccc23)s1`, the Potency is reported as inconclusive: 11.6 µM [falling, partial curve, poor fit]. With `COC(=O)c1ccc(CSc2nc3c(c(=O)n2-c2ccc(C)cc2)SCC3)o1` the Potency was inconclusive: 20.6 µM [falling, partial curve, poor fit]. For `COc1ccc(CCC(C)NCC(C)c2ccccc2)cc1` (stereo unspecified), the Potency was inconclusive: 0.0052 µM [activator, full curve, poor fit]. With `COc1ccc2oc(C(=O)N3CCN(c4ncccn4)CC3)c(C)c2c1` the Potency was inconclusive: 0.0326 µM [falling, full curve, poor fit]. With `CC(=O)c1c(C)[nH]c(C(=O)COC(=O)c2cc(C)oc2C)c1C` the Potency was inconclusive: 16.4 µM [falling, single point]. In the case of `O=C(N/N=C/c1ccncc1)c1nc(-c2ccccc2)n2c1CCCCC2`, the Potency is reported as inconclusive: 2.31 µM [falling, full curve, poor fit]. In the case of `O=C(COc1ccccc1Cl)NCCCNC(=O)c1cccnc1`, the Potency is reported as active: 3.66 µM. With `O=C1CCN(CCc2ccccc2)CCN1CCSc1ccccc1` the Potency was inconclusive: 25.9 µM [activator, single point]. For `CCn1c(=O)c(C(=O)CN2c3ccccc3CC2C)c(N)n(Cc2ccccc2)c1=O` (stereo unspecified), the Potency was inconclusive: 29.1 µM [falling, single point]. For `CC[N+](C)(C)CCN(Cc1ccc(Cl)cc1)c1ccccn1`, the Potency was inconclusive: 14.6 µM [falling, partial curve, poor fit]. For `Cc1ccn2cc(-c3cnoc3C)nc2c1`, the Potency was “inactive”. In the case of `Cc1ccc(C(=O)N/C(=C\c2ccco2)C(=O)NCc2cccnc2)cc1`, the Potency is reported as “inactive”. With `Nc1nc(-c2cccnc2)nc2sc3c(c12)CCCC3` the Potency was inconclusive: 25.9 µM [activator, single point]. With `Oc1ccc(N2CCN(C(=S)NCCc3ccccc3)CC2)cc1` the Potency was inconclusive: 25.9 µM [falling, partial curve, poor fit]. In the case of `C=CCc1cc(Cl)ccc1OCCNCCOC`, the Potency is reported as inconclusive: 14.6 µM [activator, partial curve, poor fit]. For `CCn1c(C)cc(/C=C2\SC(=O)N(CC(=O)Nc3ccc(C)c(C)c3)C2=O)c1C`, the Potency was inconclusive: 20.6 µM [falling, single point]. With `Cc1cc(N2CCCC2)ccc1NC(=O)COc1ccccc1` the Potency was “inactive”. In the case of `O=C(CCS(=O)(=O)c1ccc2c(c1)NC(=O)CO2)NCCc1ccccc1`, the Potency is reported as “inactive”. With `CCN(CC)CCCN1C=C2C(=O)C(C)(OC(=O)C3CCCC3)C(=O)C=C2C=C1c1ccsc1` (stereo unspecified) the Potency was inconclusive: 29.1 µM [activator, single point]. With `COc1cccc(NC(=O)Nc2ccc(Cc3ccncc3)cc2)c1` the Potency was inconclusive: 14.6 µM [falling, partial curve, poor fit]. For `CS(=O)(=O)N1N=C(c2ccc(Br)cc2)CC1c1ccc2c(c1)OCO2` (stereo unspecified), the Potency was inconclusive: 0.461 µM [activator, full curve, poor fit]. With `O=C(c1ccc(Br)c(S(=O)(=O)N2CCCCC2)c1)N1CCCCC1` the Potency was “inactive”. For `COc1ccc(NC(=O)Nc2cccc3ccccc23)cc1OC`, the Potency was inconclusive: 29.1 µM [falling, single point]. For `Cc1cccc(S(=O)(=O)Nc2cccc3c2C(=O)c2ccccc2-3)c1`, the Potency was active: 18.4 µM. With `O=C(Nc1cccc(C(F)(F)F)c1)c1cccnc1` the Potency was inconclusive: 1.46 µM [falling, full curve, poor fit]. With `CCOC(=O)C1(CCOc2ccccc2)CCN(Cc2cnc(C)s2)CC1` the Potency was inconclusive: 16.4 µM [falling, partial curve]. With `Cc1noc(C)c1-c1ccc2ncnc(NC(C)c3ccccc3)c2c1` (stereo unspecified) the Potency was active: 23.1 µM. For `COc1ccc(Cn2c(O)c(C=Nc3ccccc3)c3ccccc3c2=O)cc1`, the Potency was inconclusive: 10.3 µM [falling, partial curve, poor fit]. With `CC(C)(C)N1CC(C(=O)Nc2ccc(S(=O)(=O)N3CCCCC3)cc2)CC1=O` (stereo unspecified) the Potency was inconclusive: 20.6 µM [falling, partial curve]. With `CCc1ccc2c(CC(=O)Nc3nnc(C4CC4)s3)coc2c1` the Potency was inconclusive: 9.2 µM [falling, partial curve]. With `CN(c1ccc(C(=O)N2CCN(Cc3ccccc3)CC2)cc1)S(=O)(=O)c1ccc(Cl)cc1` the Potency was inconclusive: 20.6 µM [falling, single point]. In the case of `O=C1CCC2(CC1)NC(=O)N(c1ccccc1)N2`, the Potency is reported as “inactive”. For `COc1nccnc1NS(=O)(=O)c1ccc(NC(=S)NC(=O)/C=C/c2ccc(F)cc2)cc1`, the Potency was “inactive”. In the case of `CCc1ccc(C(=O)c2cn(CC(=O)NCCc3ccccc3)c3nc(C)ccc3c2=O)cc1`, the Potency is reported as inconclusive: 29.1 µM [falling, single point]. With `N#C/C(=C\Nc1ccccc1SC(F)(F)F)c1nc(-c2ccccc2)cs1` the Potency was inconclusive: 20.6 µM [activator, partial curve, poor fit]. For `CC(=O)Nc1ccc(Nc2ncnc3c2cnn3-c2cccc(C)c2)cc1`, the Potency was inconclusive: 6.51 µM [activator, single point].
